{"source": "PubChem BioAssay AID540276", "about": "(National Center for Advancing Translational Sciences (NCATS), 2011)", "note": "“And” between values parts separate entries of the source, which are not always exact repeats. Identical values can stand only once. In all, about 300,000 compounds went through this assay and about 5,400 (1.8%) were called active. This list was built around the results that the source calls inconclusive (neither active nor inactive); the mix of calls is not that of the screen. Calls follow the shape of the full dose curve; tested in HEK293 cells. Where the call is inconclusive, the potency comes from a doubtful curve fit. Potency is read from the fitted curve at half-maximal effect."}
{"assay": "qHTS for inhibitors of binding or entry into cells for Marburg Virus", "conditions": "Marburg virus pseudotyped entry inhibition, cell reporter; series mostly up to 37.8 µM"}
{"smiles": "COc1cc(N=c2ssnc2Cl)cc(OC)c1OC", "Potency": "inactive"}
{"smiles": "COc1cc(SC)ccc1C(=O)NCCc1ccccc1", "Potency": "inconclusive: 12.6 µM [inhibitor, single point]"}
{"smiles": "Cc1ccc(OCC(=O)N2CCCc3ccccc32)cc1", "Potency": "inactive"}
{"smiles": "O=C(NC(Nc1ccc(F)cc1)(C(F)(F)F)C(F)(F)F)c1cccnc1", "Potency": "inconclusive: 0.411 µM [activator, partial curve, poor fit]"}
{"smiles": "Cc1nn(Cc2ccc(C(=O)NN)cc2)c(C)c1Cl", "Potency": "inconclusive: 12.6 µM [inhibitor, partial curve, poor fit]"}
{"smiles": "N/C(CCS(=O)(=O)c1ccc(Cl)cc1)=N\\OC(=O)c1ccccc1Cl", "Potency": "inactive"}
{"smiles": "COc1ccc(C2NC(c3ccc(OC)cc3)C(c3ccccc3)C(=O)C2c2ccccc2)cc1", "note": "(stereo not drawn)", "Potency": "inconclusive: 29.1 µM [inhibitor, single point]"}
{"smiles": "CSc1cccc(NC(=S)N2CCCN(Cc3cccc(Cl)c3)C2)c1", "Potency": "active: 4.47 µM"}
{"smiles": "COc1cc(C(=O)Nc2ccc(NC(=O)c3cccc(Cl)c3)nc2)cc(OC)c1OC", "Potency": "inconclusive: 6.31 µM [inhibitor, single point]"}
{"smiles": "Cc1cccc(C)c1NC(=O)N1CCCC1C(=O)Nc1ccc(-n2cnnn2)cc1", "note": "(stereo not drawn)", "Potency": "inconclusive: 31.6 µM [activator, single point]"}
{"smiles": "CCOCCCn1c(=S)[nH]c2cc(C(=O)NCCCN(CC)CC)ccc2c1=O", "Potency": "inconclusive: 5.62 µM [inhibitor, partial curve, poor fit]"}
{"smiles": "CC(OC(=O)c1ccc(F)c(S(=O)(=O)N2CCOCC2)c1)C(=O)NC1CCCC1", "note": "(stereo not drawn)", "Potency": "inactive"}
{"smiles": "O=C(C1CC1)N1CCC(c2nc(-c3ccc(S(=O)(=O)NCC4CCCO4)cc3)no2)CC1", "note": "(stereo not drawn)", "Potency": "inactive and inconclusive: 1.46 µM [inhibitor, full curve]"}
{"smiles": "CCOC(=O)C1CCCN(C(=O)c2cc(S(=O)(=O)Nc3ccccc3OC)ccc2C)C1", "note": "(stereo not drawn)", "Potency": "inactive"}
{"smiles": "Cc1ccc(C)c(N(CC(=O)NC2CCCCC2)C(=O)c2snc(C(N)=O)c2N)c1", "Potency": "inconclusive: 35.5 µM [inhibitor, single point]"}
{"smiles": "COc1cccc(CN(C)C(=O)[C@@H](NC(=O)c2ccc(C)cc2)C(C)C)c1", "Potency": "inconclusive: 35.5 µM [inhibitor, partial curve, poor fit]"}
{"smiles": "O=S(=O)(N/N=C/c1ccc(F)cc1)c1ccccc1", "Potency": "inconclusive: 0.562 µM [activator, full curve, poor fit]"}
{"smiles": "COc1ccccc1/C=C/C(=O)N1CCC(c2ccccc2)C1", "note": "(stereo not drawn)", "Potency": "inconclusive: 3.55 µM [activator, full curve, poor fit]"}
{"smiles": "Cc1sc2ncnc(N/N=C/c3ccccc3O)c2c1C", "Potency": "active: 3.16 µM"}
{"smiles": "O=S(=O)(c1cc(Cl)ccc1Cl)N1CCN(Cc2ccc3c(c2)OCO3)CC1", "Potency": "inactive"}
{"smiles": "CC(C)Cn1c(N)c(C(=O)NCc2cccs2)c2nc3ccccc3nc21", "Potency": "inconclusive: 35.5 µM [inhibitor, single point]"}
{"smiles": "COc1ccc(-c2cn3c(C)c(C(=O)Nc4cccc(NC(C)=O)c4)sc3n2)cc1", "Potency": "inconclusive: 25.9 µM [inhibitor, single point]"}
{"smiles": "COc1cccc(-c2nnc3sc(-c4cccs4)nn23)c1", "Potency": "inactive"}
{"smiles": "CCOc1ccc(-c2nc(N)ncc2Oc2cccc(OC)c2)c(O)c1", "Potency": "inconclusive: 12.6 µM [inhibitor, partial curve, poor fit]"}
{"smiles": "Cc1cc(C)cc(OCc2nnc(SCC(=O)c3ccc(Br)cc3)o2)c1", "Potency": "inconclusive: 35.5 µM [inhibitor, partial curve, poor fit]"}
{"smiles": "COc1ccccc1-n1nc(C)cc1N", "Potency": "inactive"}
{"smiles": "COc1ccc(/C=C(\\C#N)C(=O)OCC(=O)N2CC(C)OC(C)C2)cc1", "note": "(stereo not drawn)", "Potency": "inconclusive: 0.562 µM [inhibitor, full curve, poor fit]"}
{"smiles": "Clc1ccc(CN2CCCCCCC2)cc1", "Potency": "inconclusive: 1 µM [inhibitor, partial curve, poor fit]"}
{"smiles": "Cc1cc(C(=O)CSc2nnnn2-c2ccc(O)cc2)c(C)n1Cc1ccc2c(c1)OCO2", "Potency": "inactive"}
{"smiles": "CCC(C)N1C(=O)/C(=C/c2c(NCCCOC(C)C)nc3c(C)cccn3c2=O)SC1=S", "note": "(stereo not drawn)", "Potency": "inconclusive: 20.6 µM [inhibitor, single point]"}
{"smiles": "CC(O)CNc1ncnc2cc(-c3ccc(F)cc3)sc12", "note": "(stereo not drawn)", "Potency": "inactive"}
{"smiles": "COc1ccc(S(=O)(=O)N2CCC(C(=O)Nc3cc(C(F)(F)F)ccc3Cl)CC2)cc1", "Potency": "inconclusive: 17.8 µM [inhibitor, partial curve, poor fit]"}
{"smiles": "O=c1[nH]c(=O)n([C@H]2C[C@H](O)[C@@H](CO)O2)cc1F", "Potency": "inconclusive: 0.0052 µM [inhibitor, full curve, poor fit]"}
{"smiles": "CCOP(=O)(OCC)c1nc(-c2ccccc2Cl)oc1N1CCOCC1", "Potency": "inconclusive: 31.6 µM [inhibitor, partial curve, poor fit]"}
{"smiles": "COc1ccccc1NC(=O)c1cn(C)c(=O)c2cc(OC)c(OC)cc12", "Potency": "inactive"}
{"smiles": "O=C(O)CNc1ncccc1[N+](=O)[O-]", "Potency": "inconclusive: 3.98 µM [activator, single point]"}
{"smiles": "CCN1CCC2(CC1)N=C(c1ccc(F)cc1)C(=S)N2C(=O)c1ccc(C(C)(C)C)cc1", "Potency": "inconclusive: 1.26 µM [activator, single point]"}
{"smiles": "O=C(Nc1ccc2c(c1)OCCO2)C1CCN(C(=O)c2ccc(Cl)cc2)CC1", "Potency": "inconclusive: 0.141 µM [activator, full curve, poor fit]"}
{"smiles": "Cc1cccc(N2C(=O)SC(SC(=Nc3ccccc3)Nc3ccccc3)C2=O)c1", "note": "(stereo not drawn)", "Potency": "inconclusive: 4.47 µM [activator, full curve, poor fit]"}
{"smiles": "COCCCn1c(N)c(-c2nc3ccccc3n2C)c2nc3ccccc3nc21", "Potency": "inconclusive: 32.6 µM [inhibitor, single point]"}
{"smiles": "CCCOc1ccccc1/C=C1\\SC(N2CCCCC2)=NC1=O", "Potency": "inconclusive: 0.631 µM [inhibitor, full curve, poor fit]"}
{"smiles": "COc1ccccc1C(=O)NNC(=O)C(=O)Nc1ccc(C)cc1", "Potency": "inactive"}
{"smiles": "Cc1ccc(N2C(=O)NC(=O)/C(=C\\c3cnc(-c4ccccc4)nc3)C2=O)cc1", "Potency": "inconclusive: 22.4 µM [activator, single point]"}
